Assay results taken from patent US20250277208A1, “Method of Peptide Library Construction and Peptides Thereof” (Alcamena Stem Cell Therapeutics, LLC, priority 2024, published 2025).
No constants are given. Whether binding was seen depends on the method and setting.

Chains of the proteins cited; added tags and fusions are not shown. Residues count along the entry.
UniProt P05231, residues 30-212: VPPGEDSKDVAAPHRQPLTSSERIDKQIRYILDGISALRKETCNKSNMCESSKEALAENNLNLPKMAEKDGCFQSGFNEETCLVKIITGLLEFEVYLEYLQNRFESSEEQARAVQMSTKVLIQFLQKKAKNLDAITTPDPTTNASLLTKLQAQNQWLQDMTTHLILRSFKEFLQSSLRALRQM

molecular target: Biotinylated recombinant human IL-6 (human) (UniProt P05231); assay: SPR (Biacore), IL-6 on chip

Binder | binding
SVRDLPRIMCHIVG [Peptide 31] | no binding (tested: >10 µM)
SVHIHLRRMCHIVG [Peptide 34] | no binding (tested: >10 µM)
SNYTLLRRMCHIVG [Peptide 36] | no binding (tested: >10 µM)
SVRDLLHGRCHIVG [Peptide 40] | no binding (tested: >10 µM)
NFRRDLLRRMCHIVG [Peptide 41] | no binding (tested: >10 µM)
GNSRDLLRRMCHIVG [Peptide 42] | no binding (tested: >10 µM)
SVRIYLRRMCHIVG [Peptide 20] | no binding (tested: >10 µM)
SVRDLLRRMCHPRLG [Peptide 46] | no binding (tested: >10 µM)
SVRDLLNRICHIVG [Peptide 21] | no binding (tested: >10 µM)
SVRDPHNRMCHIVG [Peptide 22] | no binding (tested: >10 µM)
SVRDLLRMFCHIVG [Peptide 23] | no binding (tested: >10 µM)
SVRDLHKMMCHIVG [Peptide 25] | no binding (tested: >10 µM)
LEIRDLLRRMCHIVG [Peptide 26] | no binding (tested: >10 µM)
LGHRDLLRRMCHIVG [Peptide 29] | no binding (tested: >10 µM)
